For at least one compound, name, drawing or mass did not settle the structure.
System: LI neurons
Assay: Calcium imaging of GABA-evoked [Ca2+]i rise in LI neurons in spinal slices
Type: cell-based, rat
Conditions: bath-applied GABAA receptor blocker

`CN1CCc2cc3c(cc2[C@H]1[C@@H]1OC(=O)c2c1ccc1c2OCO1)OCO3` [bicuculline] was tested. Which “GABA-evoked rise in [Ca2+]i during BDNF perfusion” value did it give?
Its value is “prevented”.
